Measured values published in PMC4159138, “Fission Yeast Pxd1 Promotes Proper DNA Repair by Activating Rad16^XPF and Inhibiting Dna2” (PLoS Biology, 2014).

By UniProt entry, the sequences of proteins in these tests, tags left out. Where a name states a change or a piece, a line headed by the entry shows the natural chain unless it says otherwise.
UniProt O94542: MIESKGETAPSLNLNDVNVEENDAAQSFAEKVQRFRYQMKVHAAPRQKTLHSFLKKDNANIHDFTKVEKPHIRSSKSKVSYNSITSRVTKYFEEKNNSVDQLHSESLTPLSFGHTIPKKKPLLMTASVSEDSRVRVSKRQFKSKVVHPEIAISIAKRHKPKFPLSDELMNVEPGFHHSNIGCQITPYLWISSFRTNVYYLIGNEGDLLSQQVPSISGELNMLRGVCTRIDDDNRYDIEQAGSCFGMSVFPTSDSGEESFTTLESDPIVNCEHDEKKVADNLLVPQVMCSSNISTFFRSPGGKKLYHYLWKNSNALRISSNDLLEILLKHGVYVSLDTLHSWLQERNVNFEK

Experiments:
[1] = biological target: T1, Cdc24, yeast two-hybrid fusion (S. pombe) (UniProt O75004); experiment: two-hybrid; Matchmaker system (Clontech), modified pGBKT7 bait and modified pGAD GH prey in AH109; growth on quadruple dropout medium (SD/-Ade/-His/-Leu/-Trp)
T1 sequence: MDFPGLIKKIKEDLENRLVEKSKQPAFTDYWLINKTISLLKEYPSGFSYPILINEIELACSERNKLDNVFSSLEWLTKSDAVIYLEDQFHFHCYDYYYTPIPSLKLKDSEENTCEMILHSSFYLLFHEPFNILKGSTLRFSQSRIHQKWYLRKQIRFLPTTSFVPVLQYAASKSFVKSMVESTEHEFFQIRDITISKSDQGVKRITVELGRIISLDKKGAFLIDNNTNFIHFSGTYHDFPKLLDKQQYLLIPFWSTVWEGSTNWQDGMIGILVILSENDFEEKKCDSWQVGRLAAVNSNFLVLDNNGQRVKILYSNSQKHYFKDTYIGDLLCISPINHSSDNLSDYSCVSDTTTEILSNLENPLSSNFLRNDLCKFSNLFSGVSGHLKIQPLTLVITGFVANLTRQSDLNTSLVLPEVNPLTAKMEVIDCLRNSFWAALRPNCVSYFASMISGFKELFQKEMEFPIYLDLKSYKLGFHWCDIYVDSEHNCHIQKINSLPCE

[2] = biological target: T2, Cdc24-YFH co-overexpressed with Dna2 and purified from fission yeast (S. pombe) (UniProt O75004); experiment: cross-linking; CXMS: Dna2-Cdc24-Pxd1(227–351) complex formed on anti-FLAG beads and eluted with 3× FLAG peptide; about 12 µg cross-linked by BS3 or DSS (0.5 mM, 1 h, room temperature), trypsin, LC-MS/MS, pLink; both purified
T2 sequence: T1 sequence

[3] = biological target: Full-length Pxd1 fused with the TAP tag (S. pombe); experiment: co-IP; fission yeast lysate in lysis buffer A (50 mM Tris-HCl pH 8.0, 0.1 M NaCl, 10% glycerol, 0.05% NP-40); TAP-tagged protein immunoprecipitated with IgG Sepharose beads, Myc-tagged partner by immunoblotting; wild-type background
[4] = biological target: Pxd1, yeast two-hybrid fusion (S. pombe); experiment: two-hybrid; Matchmaker system (Clontech), modified pGBKT7 bait and modified pGAD GH prey in AH109; growth on quadruple dropout medium (SD/-Ade/-His/-Leu/-Trp)

## Pxd1, yeast two-hybrid fusion (S. pombe)
[1]
  binding: binds

## Pxd1(227–351) purified from E. coli (from UniProt O94542) (domain or fragment)
[2]
  binding: binds

B1: Myc-tagged Rad16 (protein, UniProt P36617 1-877)
chain: METKVHLPLAYQQQVFNELIEEDGLCVIAPGLSLLQIAANVLSYFAVPGSLLLLVGANVDDIELIQHEMESHLEKKLITVNTETMSVDKREKSYLEGGIFAITSRILVMDLLTKIIPTEKITGIVLLHADRVVSTGTVAFIMRLYRETNKTGFIKAFSDDPEQFLMGINALSHCLRCLFLRHVFIYPRFHVVVAESLEKSPANVVELNVNLSDSQKTIQSCLLTCIESTMRELRRLNSAYLDMEDWNIESALHRSFDVIVRRQLDSVWHRVSPKTKQLVGDLSTLKFLLSALVCYDCVSFLKLLDTLVLSVNVSSYPSNAQPSPWLMLDAANKMIRVARDRVYKESEGPNMDAIPILEEQPKWSVLQDVLNEVCHETMLADTDAETSNNSIMIMCADERTCLQLRDYLSTVTYDNKDSLKNMNSKLVDYFQWREQYRKMSKSIKKPEPSKEREASNTTSRKGVPPSKRRRVRGGNNATSRTTSDNTDANDSFSRDLRLEKILLSHLSKRYEPEVGNDAFEVIDDFNSIYIYSYNGERDELVLNNLRPRYVIMFDSDPNFIRRVEVYKATYPKRSLRVYFMYYGGSIEEQKYLFSVRREKDSFSRLIKERSNMAIVLTADSERFESQESKFLRNVNTRIAGGGQLSITNEKPRVIVDLREFRSSLPSILHGNNFSVIPCQLLVGDYILSPKICVERKSIRDLIQSLSNGRLYSQCEAMTEYYEIPVLLIEFEQHQSFTSPPFSDLSSEIGKNDVQSKLVLLTLSFPNLRIVWSSSAYVTSIIFQDLKAMEQEPDPASAASIGLEAGQDSTNTYNQAPLDLLMGLPYITMKNYRNVFYGGVKDIQEASETSERKWSELIGPEAGRRLYSFFRKQLKDYE
[3]
  binding: binds

B2: Myc-tagged Cdc24 (protein, UniProt O75004 1-501)
chain: T1 sequence
[3]
  binding: binds

B3: Rad16, yeast two-hybrid fusion (protein, UniProt P36617 1-877)
chain: B1 chain
[4]
  binding: binds

B4: Dna2, yeast two-hybrid fusion (protein, UniProt Q9URU2 1-1397)
chain: MFNDQSKTTSSVKGICATTDNNHGNLKKTNSTPFRKNYLLNGRTKLKLENFAYNASTEISSPKISEKKHSSLPIKRKNTFNESSTSFSPFTKAHKEITDDLKPDKSFTRKSDLNSQDMPVCFQETSKDLCRSSSTQHLLDHQTTDSTIIDMKPVSTNSKSDVFTLYTDETVLLRRCASDNKPLINNNLSSSNVSENQSRSFGSYDEVKNQGNNLHKVPSLVSIIRNARSSEQSRIAANSSCLLKGSDTEIDEDDFALEAEDLAALDSLERQYSQLPNSTVTASAKDIEKTAKVNHVGGDLQSYCSATKASDATINEEPVNLALDKACNSLPDINSDFIDDWDDSCDGCTPGELCEFSSEYTVLEVHEDFIFHEGNHFRQLKLILEANDILHQLFLRGDWTETSIFVGDSIRVEATFDKDNTAIVDNDKGLIIIHPKILMSATAVASSFPCLRKAVISDRVGIYGPPTKAMVTGNILHDFFQHALYRGIDALENVDINLETSIKTYISDIYFADLSLDEIREELDARLPLLKSIVERYLISKKNDNNNESIHISRLLDIEESIWSPRFGLKGNIDATVEVVLTEKPESSSTLTLPLELKTGRYVDNISHFAQSLLYTLLISDRYGINTNQALLCYLENSTIKNLVASNSQLRGLIMTRNSLAQHNFRRSLPEMISNRKICDHCSLVSECLFFQKMSDKGVANSNGLTESWNEWMREVKDEDLEFYKKWEKLLNQEERLLLLKRGDVLTFDTEELEAYGKTLYPLYITKEDIVCLEIDDRVFHYKFAFLNDNGYPRNFLHSGFSVGERVFISDEHGHWSLAKGHIVHIQDSCIEVRTRHRLHIPWLKMPNFDFKKNQVFFGNYEDSKLSFIGSNHTRYRIDKDEFSSGIASIRGTLMSSVLPDAPLIIRDMIIRLKPPKFCNSALIDPEFLKCLNEDQITALKKCHAAEHYSLILGMPGTGKTTTISSLIRSLLAKKKKILLTSFTHLAVDNILIKLKGCDSTIVRLGSPHKIHPLVKEFCLTEGTTFDDLASLKHFYEDPQIVACSSLGVYHSIFNKRKFDYCIIDEASQIPLPICLGPLQLAEKFVLVGDHYQLPPLVKNSRTSKDGLSLSLFKLLSEKHPEAVTTLRLQYRMNEDINSLSSELIYGGNLVCGSKTISQKKLILPKAHLSDGLPDSSSSLHWVNKLINPSHSVIFFNTDDILGVESKTNNILENHTEAFLIEQAVSSFLERGVKQSSIGIISIYKSQVELLSKNLKSFTEIEINTVDRYQGRDKDIILISFVRSNSKNLVGELLRDWHRLNVALSRAKVKCIMFGSLSTLSSSNIVSHLLKLLEKNKWIFTLNENDIATKFDENSSPIKDCSQVATTNNAKVIIRKNQRFFNSDNLCEKAILPQLEF
[4]
  binding: binds

B5: Swi10, yeast two-hybrid fusion (protein, UniProt Q06182 1-252)
chain: MSDIDDEEFEQLAVSALEEVEKKAGFAQQPTPQKVSRVTAHSILVNPRQKGNPLLPHVRNVPWEYTDIVPDFVMGTGICSLFLSLKYHHLHPEYIYSRISKLGKSYNLRILLILVDVENHQASIQELVKTSIVNQYTLILAWSSEEAARYLETYKAYENMSPALIMEKPSTDYLSQVQSFLTSIRGINKSDSLSLLSKFGSLERALVASRDELEQLEGWGPTKVNRFLEAVQQPFMSHSTIKRPEAINLKQT
[4]
  binding: no binding

No constants are given. Whether binding was seen depends on the method and setting. Binding calls can cover weak binding; strength is not graded here. For some of these results: Tags and fused reporters may be left off the sequences shown. For some of these results: In cells and extracts the contact can be indirect.
